Each structure is given as a SMILES string. Some of the results follow. This data set is noisy: repeats of one test often differ as much as different tests do.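 HEK293T cells were given each compound shortly before transfection with a reporter in which red mCherry is followed by the SARS-CoV-2 frameshift element and then GFP in the −1 frame, so GFP appears only after frameshifting.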

In this experiment the test system is HEK293T. Nature of the experiment: percent viability (nuclei count) relative to control; higher = more viable cells. The following applies: 10 µM; 24 h.
As for `CN1C(=O)CC(C)(c2ccccc2)C1=O` (stereo not given) [mesuximide], the percent viability was 43.8%.
`CO/N=C(\C(=O)N[C@@H]1C(=O)N2C(C(=O)O)=C(/C=C\c3scnc3C)CS[C@H]12)c1csc(N)n1` [Cefditoren]: the percent viability was found to be 305%.
As for `COc1cc2nccc(Oc3ccc(NC(=O)NC4CC4)c(Cl)c3)c2cc1C(N)=O` [Lenvatinib], the percent viability was found to be 337%.
With `COc1cc2c(cc1OC)C(=O)C(CC1CCN(Cc3ccccc3)CC1)C2` (stereo not given), the percent viability was found to be 300%.
For `C[C@H]1C[C@H]2[C@@H]3CCC4=CC(=O)C=C[C@]4(C)[C@@]3(Cl)[C@@H](O)C[C@]2(C)[C@@]1(O)C(=O)CO` [beclometasone], the percent viability amounted to 121%.

The values above are taken from the supplement of paper PMC8256030.
